Assay: Host macrophage cytotoxicity, resazurin assay
Assay type: cell-based
Conditions: human, PMA-differentiated THP-1 cells (macrophages)

Q: Which IC50 at 72 h does the source give for `O=C1OCCN1/N=C/c1ccc([N+](=O)[O-])o1` [FZD, furazolidone, reference compound] here?
A: Its IC50 at 72 h is greater than 100 µM.

From article PMC10583827 (RSC Medicinal Chemistry, 2023)
